Reference: US20250025506A1
Results are given in words; binding and its absence hold for the method and conditions named. Some binding calls cover weakened binding; strength is not graded here. For some assays here: Sequences can lack the tags named with a protein.

Tests used:
[1] = biological target: T1, UPK2 antigen on 293T cells (6600, Lenti-UPK2 antigen plasmid) (Homo sapiens (Human)) (UniProt O00526); assay: flow cytometry on 293T cells transiently transfected with plasmid 6600; goat-anti-human FITC secondary (first experiment)
T1 sequence: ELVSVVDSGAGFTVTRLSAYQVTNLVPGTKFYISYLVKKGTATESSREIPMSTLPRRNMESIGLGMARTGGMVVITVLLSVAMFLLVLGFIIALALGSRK

[2] = biological target: T2, recombinant UPK2 extracellular domain (UPK2-His) (Homo sapiens (Human)) (UniProt O00526); assay: ELISA, preliminary specificity analysis (summary of the example)
T2 sequence: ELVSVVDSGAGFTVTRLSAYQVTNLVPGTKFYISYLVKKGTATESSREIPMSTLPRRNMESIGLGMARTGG

[3] = biological target: T1, UPK2 antigen on 293T cells (6600, Lenti-UPK2 antigen plasmid) (Homo sapiens (Human)); assay: flow cytometry on 293T cells transiently transfected with plasmid 6600 (FIG. 19)
[4] = biological target: T2, recombinant UPK2 extracellular domain (UPK2-His) (Homo sapiens (Human)); assay: ELISA, whole recombinant antibody
[5] = biological target: T1, UPK2 antigen on 293T cells (6600, Lenti-UPK2 antigen plasmid) (Homo sapiens (Human)); assay: flow cytometry on 293T cells transiently transfected with plasmid 6600; repeat with 1 ug, 0.3 ug and 0.1 ug of antibody

binding [1]: binds
binding [2]: binds
binding [3]: binds
binding [4]: binds
binding [5]: binds
B1: S2E2 recombinant anti-UPK2 monoclonal antibody (murine-human chimeric) (antibody, V domains shown)
VH: QVKLQQSGPELVRPGASVKMSCKASGYTFTTYWMHWVKQRPGQGLEWIGMIDPSNSDTRLNQKFKDKATLNVDTSSNTAYMHLSSLTSEDSAVYYCTLGGTEYWGQGATLTVSS
VL: SIVMTQSPATLSVTPGDRVSLSCRASQSIGDYLHWFQQKSHESPRLLIKYASQSISGIPSRFSGSGSGSDFTLIINTMEPEDVGVYYCQNAHTYPYTFGGGTKLEIK
